Structures can show the parent of a compound that is named as a salt.

A short description of data set [1]: clinical. Particulars: both, human, in vivo; for CL/F: Phase III database.

Compound `COc1cc2c(cc1OC)C(=O)C(CC1CCN(Cc3ccccc3)CC1)C2` (racemic) [donepezil, (R,S)-1-benzyl-4-[(5,6-dimethoxy-1-indanon)-2-yl]-methylpiperidine hydrochloride] registered a bioavailability in data set [1] of 91.2%. Also, the CL/F in data set [1] (CL/F2D6,EM population mean, CYP2D6 EM) was 175 mL/min; in data set [1] (CL/F2D6,PM population mean, CYP2D6 PM), 119 mL/min; in data set [1] (CL/F2D6,URM population mean, CYP2D6 URM), 227 mL/min. Also, for the setting “10 mg donepezil immediate release once daily, memantine 10 mg immediate release twice daily, steady state”, the “dose normalized donepezil concentration in blood plasma with memantine vs without (FIG. 4)” value is “higher at all times of day at steady state”. For the setting “23 mg donepezil sustained release once daily, memantine 10 mg immediate release twice daily, steady state”, the “dose normalized donepezil concentration in blood plasma with memantine vs without (FIG. 3)” value is “higher at all times of day at steady state”. Also, the Vc/F population mean (central compartment) is reported as 539 L. In addition, the “increase in the plasma concentration (exposure) of donepezil with memantine, equivalent increase in donepezil dose” value (donepezil in combination with memantine vs alone) was “approximately 20%”. This compound also came in with a Vp/F population mean (peripheral compartment) of 625 L. Under “transit rate constant, IR formulation”, this compound returned a Ktr population mean of 2.76 h⁻¹. In addition, the KtrSR population mean (transit rate constant, SR formulation) worked out at 0.888 h⁻¹.

As a reminder, the bioavailability is the share of a dose that reaches the circulation, judged against a reference dose that is usually intravenous. Lower therefore signals little systemic uptake. One may read the CL/F as clearance divided by bioavailability, as obtained after extravascular dosing.
